Experimental data reported in patent US20080026417A1, “ASSAYS FOR TRICHOMONAL AND OTHER HYDROLASES” (priority 2002, published 2008).
At least one structure is not confirmed: it was looked up by name or label, or the drawing left a doubt.

What was measured:
[1] = test system: endogenous hydrolases present in normal vaginal fluid; assay: Experiment 14: substrate comparison on swabs with normal vaginal fluid at low pH; type: biochemical, human; settings: threonine pH 2.4, Fast Garnet, 0-9 scale
Procedure: Mixtures were made of the 400 mM substrate stock solutions, 25% hydroxy-propylcellulose solution, 200 mM L-cysteine, along with additional ethanol to a final concentration of 150-320 mM substrate, 20 mM L-cysteine, and 2-5% hydroxypropyl-cellulose. Substrate films were made by pipetting 1 μL of a mixture over a circular area approximately […] in diameter on a sheet of Mylar, and drying under a stream of dry nitrogen. The dried films were stored in a container with desiccant until used.
(§1) For each pair of vaginal fluid specimens from a donor, one swab was rubbed on one substrate film and the other swab was rubbed on a different substrate film; two substrates were compared at a time. The concentrations of the substrates varied from 150 mM to 320 mM in the solutions used to make the substrate films, but each specific comparison matched equimolar concentrations of substrates (as specified in Tables 14.1, 14.2, and 14.3 below). In the swabs, the substrate was diluted by vaginal fluid and buffer, and the final concentration of substrate in the swab tip was estimated to be 1/60 of the concentration of substrate in the solutions used to make the films. Immediately after each swab was rubbed on a substrate film, a 35-μL drop of threonine buffer was applied to the plastic where the substrate film had been, and the swab was rubbed on the same spot again until the buffer was absorbed into the swab. The swabs were left lying on the plastic for ten minutes, then each swab was rubbed on a Fast Red or Fast Garnet film. For the comparisons between ZLR and ZVR, and between VLR-MNA and ZRRR-MNA, films made with 10 mM Fast Garnet were used; for the comparison between ZVR and VLR-MNA, films made with 70 mM Fast Red were used. The intensity of pink color that developed on each swab after two minutes was visually scored using the 0-9 color scale presented in Table 11.1 above; fractional scores such as 1.3 were used when color intensities between swabs differed only slightly.

[2] = test system: trichomonal hydrolases; assay: Experiment 14: substrate comparison on swabs with vaginal fluid plus trichomonal hydrolases at low pH; type: biochemical, Trichomonas vaginalis; settings: Hydrolases added (n = 4); 320 mM substrate film solution; threonine pH 2.4; Fast Garnet; 0-9 scale
Procedure: as §1, with “For the comparisons between ZLR and ZVR, and between VLR-MNA and ZRRR-MNA, films made with 10 mM Fast Garnet were used; for the comparison between ZVR and VLR-MNA, films made with 70 mM Fast Red were used.” left out, “slightly. […]” for “slightly.”

[3] = Normal (n = 4), 320 mM substrate film solution
[4] = Normal (n = 6), 200 mM substrate film solution

`COc1cc(NC(=O)[C@H](CCCN=C(N)N)NC(=O)[C@H](CC(C)C)NC(=O)OCc2ccccc2)cc2ccccc12` [ZLR, CBZ-Leu-Arg-MNA] was tested, and the Color score [1, 3] was 0 to Trace and the Color score [2] was “Trace to 1”.
In the case of `CC(=O)O.COc1cc(NC(=O)[C@H](CCCN=C(N)N)NC(=O)[C@H](CCCN=C(N)N)NC(=O)[C@H](CCCN=C(N)N)NC(=O)OCc2ccccc2)cc2ccccc12` [ZRRR-MNA, CBZ-Arg-Arg-Arg-MNA], the Color score [1, 4] is reported as 0 to Trace.
With `COc1cc(NC(=O)[C@H](CCCNC(=N)N)NC(=O)[C@@H](NC(=O)OCc2ccccc2)C(C)C)cc2ccccc12` [ZVR, CBZ-Val-Arg-MNA] the Color score [1, 3] was “Trace to 1.5”.
`COc1cc(NC(=O)C(CCCN=C(N)N)NC(=O)C(CC(C)C)NC(=O)C(N)C(C)C)cc2ccccc12` [VLR-MNA, D-Val-Leu-Arg-MNA] was tested, and the Color score [1, 4] was 0 to Trace.
